Values of other authors in patent US20140056804A1, “PHARMACEUTICAL COMPOUND WHICH INCLUDES CLINOPTILOLITE” (priority 2008, published 2014).
Some results were stated once for a whole list of compounds, not compound by compound.

Conditions: best results from large multi-centre studies

Cc1[nH]cnc1CN1CCc2c(c3ccccc3n2C)C1=O [alosetron]
patients achieving primary clinical endpoints: less than 70%

[H]/N=C(/NCCCCC)N/N=C/c1c[nH]c2ccc(OC)cc12 [tegaserod]
patients achieving primary clinical endpoints: less than 70%
